Results on 1 substance are retold here after paper doi:10.1101/2022.12.30.522309.

Chains of the proteins cited; added tags and fusions are not shown.
UniProt P32121: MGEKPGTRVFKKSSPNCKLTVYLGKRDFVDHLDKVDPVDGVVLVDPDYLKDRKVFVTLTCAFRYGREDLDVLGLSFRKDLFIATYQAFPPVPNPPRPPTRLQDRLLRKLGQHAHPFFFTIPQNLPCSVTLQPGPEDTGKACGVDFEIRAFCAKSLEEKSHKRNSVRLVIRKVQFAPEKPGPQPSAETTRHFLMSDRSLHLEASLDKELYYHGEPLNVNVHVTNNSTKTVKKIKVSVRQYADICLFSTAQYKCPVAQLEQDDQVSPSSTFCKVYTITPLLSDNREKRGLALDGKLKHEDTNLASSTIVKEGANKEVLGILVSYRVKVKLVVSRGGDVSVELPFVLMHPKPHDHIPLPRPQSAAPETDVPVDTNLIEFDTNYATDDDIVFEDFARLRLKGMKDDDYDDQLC

These are yes or no findings as the source states them, for the method shown. Binding seen in cells or lysates may run through a third protein. Some results given as binding are weak or reduced against the parent protein; the word gives no strength.

This test concerns the target T1, FFA2R-LgBiT (human) (UniProt O15552).
T1 sequence: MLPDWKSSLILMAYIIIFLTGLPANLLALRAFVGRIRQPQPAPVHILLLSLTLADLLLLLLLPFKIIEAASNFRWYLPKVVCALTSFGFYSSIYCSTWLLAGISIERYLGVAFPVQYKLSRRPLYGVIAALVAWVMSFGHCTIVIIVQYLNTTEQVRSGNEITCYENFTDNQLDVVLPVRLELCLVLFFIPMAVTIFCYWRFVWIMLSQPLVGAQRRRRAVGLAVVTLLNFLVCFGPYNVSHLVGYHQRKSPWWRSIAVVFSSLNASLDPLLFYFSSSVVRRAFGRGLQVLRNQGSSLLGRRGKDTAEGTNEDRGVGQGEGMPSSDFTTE
As to the kind of experiment: split reporter.

As to “SmBiT-β-arrestin2 (from UniProt P32121 1-409)”, the binding result is listed as “binds”.
